# Library screening results

The values are deposited in ChEMBL (CHEMBL3988442, “University of Dundee, Small-Polar-MMV Screening Library” (2021)).

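Viability assay of Plasmodium falciparum sporozoites; the read-out is not stated. The concentration is filed as 10 mM, unlikely as a test dose, so the dose is not known. Direction is inferred from retests: higher values go with lower viability. Strong results were mostly tested again. Of about 34,000 compounds tested this way, about 280 (0.84%) reached 50% or more in at least one test.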

Values are the deposited “Percent Effect”, in %. How 0% and 100% were set is not recorded. Most values in the screen are low, and negative values occur. Compounds were drawn at random from those tested, without regard to their results. Two or more numbers in one place are separate tests of the same structure; such repeats can differ widely.

- Cc1ccc(NC(=O)c2n[nH]c(-n3cnnc3)n2)cc1C : 3.289%
- CCNC(=O)C1CCN(Cc2csc(-c3ccc(C)o3)n2)CC1 : -18.19% and -18.61% and -35.8%
- COc1cc(C)nc(N2CCN(C(=O)c3ccoc3C)CC2)n1 : -2.898%
- CCc1nc(C2CCCN2C(=O)CCc2c(C)noc2Cl)no1 (stereo unspecified) : 6.043%
- CS(=O)(=O)NC1CCN(C(=O)CCC2CCCO2)CC1 (stereo unspecified) : -4.772%
- Cc1cc(C)n(CC2CCCCN2CC(=O)N(C)Cc2ccco2)n1 (stereo unspecified) : 5.351%
- COc1ncc(C2(O)CCN(Cc3cc(F)ccc3F)CC2)c(OC)n1.Cl : 2.678%
- CCOc1ncccc1CNC(=O)NCCNC(=O)c1ccco1 : 15.84%
- O=C(Nc1cnn(CCN2CCOCC2)c1)c1ccccn1 : 3.792%
- c1ccc(Cc2nnc(CN3CCCC(Cn4cncn4)C3)o2)cc1 (stereo unspecified) : 7.001%
- Cc1noc(C)c1CN1CCn2cc(CNc3ccccn3)nc2C1.O=C(O)C(F)(F)F.O=C(O)C(F)(F)F : -3.168%
- CCNC(=O)C1(Cc2cc(-c3ccc(C)cc3)no2)CCCN(C)C1 (stereo unspecified) : -6.017%
- CC(NC(=O)CCc1cccs1)c1nnc2n1CCC2 (stereo unspecified) : 13.12%
- CC(=O)N1CCC(c2nccnc2C)CC1 : -2.739%
- Cc1ccccc1C1(CNC(=O)NCCc2nnc3n2CCC3)CC1 : -2.593%
- CNC(=O)C(NC(=O)c1c(C)noc1C)c1ccc(F)c(F)c1 (stereo unspecified) : -0.1098%
- CCc1cc(C(=O)N2CC[C@@H](c3ccc4c(c3)OCO4)[C@H](O)C2)[nH]n1 : -18.94%
- c1ncn(CC2CN(CC3CCCCC3)CCO2)n1 (stereo unspecified) : -3.781%
- O=C(c1ccncc1)N1CCCC(c2ncncc2-c2ccncc2)C1 (stereo unspecified) : -1.394%
- [H][C@@]12CCN(S(=O)(=O)c3cccnc3)[C@]1([H])CC[C@@H](c1nnc(C)o1)O2 : -19.66%
- [H][C@@]12CS(=O)(=O)C[C@]1([H])N(Cc1ccc(C(C)=O)cc1)CCN2CCOC : 1.433%
- O=C(NCC1(O)COCCN(Cc2cccc(O)c2)C1)c1cscn1 (stereo unspecified) : 2.877%
- CNC(=O)CN1CCOCC2(CCCN(CCc3ccccc3)C2)C1.O=C(O)C(F)(F)F.O=C(O)C(F)(F)F (stereo unspecified) : -0.1805%
- CCCNC(=O)CNc1ccc(C(=O)N2CCCCC2C)cc1C (stereo unspecified) : -0.1635%
- O=C1NCC(C(=O)Nc2ncc(Cc3ccccc3)s2)N1 (stereo unspecified) : 12.22%
- O=C(Cc1c(F)cccc1Cl)NC1CCCCNC1=O (stereo unspecified) : 2.336%
- CC(C)Oc1cccc(CN(C)C(=O)Cc2ccon2)c1 : -1.866%
- COc1ccccc1CC(=O)NCc1c(C)nc2cc(=O)[nH]n2c1C : 4.122%
- Cc1cc(NC(=O)CNC2CCCN(c3cccnn3)C2)on1 (stereo unspecified) : 18.12%

Some entries from above, unchanged:

SMILES	Percent Effect
CCOc1ncccc1CNC(=O)NCCNC(=O)c1ccco1	15.84
CCCNC(=O)CNc1ccc(C(=O)N2CCCCC2C)cc1C (stereo unspecified)	-0.1635
c1ncn(CC2CN(CC3CCCCC3)CCO2)n1 (stereo unspecified)	-3.781
c1ccc(Cc2nnc(CN3CCCC(Cn4cncn4)C3)o2)cc1 (stereo unspecified)	7.001